Library screening results

Sequences of proteins named here, by UniProt entry; tags and fusion partners are left off.
UniProt E9BF75, entry or part of it: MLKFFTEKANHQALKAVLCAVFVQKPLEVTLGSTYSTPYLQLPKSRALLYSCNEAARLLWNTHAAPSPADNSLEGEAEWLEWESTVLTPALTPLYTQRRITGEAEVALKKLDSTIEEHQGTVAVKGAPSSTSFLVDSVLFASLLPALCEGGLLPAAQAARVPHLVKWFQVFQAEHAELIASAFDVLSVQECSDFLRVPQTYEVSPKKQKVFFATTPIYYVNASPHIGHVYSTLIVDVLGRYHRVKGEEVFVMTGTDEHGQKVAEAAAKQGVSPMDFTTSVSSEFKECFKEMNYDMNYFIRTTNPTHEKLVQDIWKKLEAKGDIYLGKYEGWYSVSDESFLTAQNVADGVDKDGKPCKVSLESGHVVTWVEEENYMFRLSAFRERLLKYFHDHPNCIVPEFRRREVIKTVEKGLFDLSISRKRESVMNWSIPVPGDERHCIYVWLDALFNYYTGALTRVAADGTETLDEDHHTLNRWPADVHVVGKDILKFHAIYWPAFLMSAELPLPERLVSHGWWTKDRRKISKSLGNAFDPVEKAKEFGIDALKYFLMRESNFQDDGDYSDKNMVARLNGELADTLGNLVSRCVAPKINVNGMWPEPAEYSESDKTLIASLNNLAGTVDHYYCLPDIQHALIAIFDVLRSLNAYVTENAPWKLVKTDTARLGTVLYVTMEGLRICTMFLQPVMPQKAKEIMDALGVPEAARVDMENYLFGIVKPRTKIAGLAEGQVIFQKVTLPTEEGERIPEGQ

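Methionyl-tRNA synthetase (putative), Leishmania donovani (UniProt E9BF75). Primary screen of methionyl-tRNA synthetase; the read-out is not stated. The test concentration is not given. The values are filed as inhibition. Of about 68,000 compounds tested this way, about 24 (0.035%) reached 50% or more in at least one test.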

Results are percentages, as filed. The controls that fix the scale are not given in the record; negative values are as filed. This is an unselected part of the compounds tested.

Result for NC(=O)C1Cn2ccnc2C2(CCN(C(=O)c3ccncc3)CC2)O1 (centres undefined) was 12.92%.
Result for c1ccc2cc(OCCCN3CCn4c(nnc4C4CC4)C3)ccc2c1 was 15.9%.
Result for CC(C)CN1CCC(NC(=O)N(C)Cc2csc3ccccc23)CC1 was 16.03%.
Result for COc1ccc(NC(=O)N2CCCCCC2c2ccncc2)cn1 (centres undefined) was 7.904%.
Result for CC(C)N(Cc1cnn(C)c1)C(=O)c1ccnc(N(C)C)c1 was 13.66%.
Result for COC1CCN(C(=O)c2nn(-c3ccc(C(C)C)cc3)cc2O)CC1 was -8.992%.
Result for CC(=O)N1CCO[C@@H]2CN(S(=O)(=O)C3CC3)C[C@@H]2C1 was 3.101%.
Result for COc1ccccc1C1CNC(=O)c2nc(-c3nccn3C)[nH]c2C1 (centres undefined) was 2.747%.
Result for C[C@@H]1CN(Cc2ccco2)CCN1C(=O)Cc1ccccc1F was 12.46%.
Result for CC1=N[C@@]2(CC[C@@H]3CN(CC(C)C)C[C@@H]32)C(=O)N1 was 11.5%.
Result for C[C@@H]1CN(S(=O)(=O)N2CCOCC2)C[C@@]1(O)C1CC1 was 12.89%.
Result for Cc1noc(C)c1CN1CCN(CCN(C)C)c2ncccc2C1 was 1.742%.
Result for Cc1cccn2c(CC(=O)N3CCC(CCn4cccn4)CC3)cnc12 was -2.687%.
Result for Cc1ncc(CN(C)C(=O)Nc2cccc(N3CCOC3=O)c2)s1 was 4.61%.
Result for CC(=O)Nc1cc(F)c(S(=O)(=O)N(C)CC2CCC2)c(F)c1 was -2.211%.
Result for O=C1N[C@H]2OCCC[C@H]2[C@H](c2ccccc2C(=O)O)N1 was 5.607%.
Result for CC(=O)NCCCSC1CCCN(c2ccccc2F)C1=O (centres undefined) was 6.115%.
Result for Cc1ccc2nnc(C(=O)NCCCn3cccn3)nc2c1 was 3.226%.
Result for COCCC(=O)N1CCCC(CCC(=O)Nc2ccc(Cl)cc2)C1 (centres undefined) was 10.36%.
Result for COc1cccc(O)c1CN1CCCC(Nc2cccc(F)c2)C1 (centres undefined) was 8.541%.
Result for CN(Cc1nnc(C2CC2)n1C)C1CCN(CCc2cccs2)C1 (centres undefined) was 11.5%.
Result for CCn1c(C)nnc1SCCNc1cc(COC)ncn1 was 13.2%.
Result for Cn1cc(CN2C[C@@H]3COC[C@]3(C(=O)NCc3cccs3)C2)cn1 was 8.629%.
Result for CCC(CO)NCc1ccc(-c2ccccc2)o1 (centres undefined) was 14.21%.
Result for O=C1N(Cc2cccc(F)c2F)CCCC1(O)CN1CCCOCC1 (centres undefined) was 20.49%.
Result for COc1ncccc1CN1Cc2nccn2CC(Cn2cccn2)C1 (centres undefined) was 7.273%.
Result for CCN1CCN(c2ccccc2NC(=O)N(C)C2CCSC2)CC1 (centres undefined) was 16.67%.
Result for Cn1cnnc1CC1CCN(Cc2nn(C)c3cccc(Cl)c23)CC1 was 0.3436%.
Result for CN1CC2(CCN(C(=O)Cc3ccccn3)CC2)OCC1=O was 14.79%.
Result for Cc1nc(N(C)C)nc2c1COCC21CCN(C(=O)NC(C)C)C1 (centres undefined) was 16.19%.
Result for O=C(CSc1nc2c(cnn2CCO)c(=O)[nH]1)NC1CCCCC1 was 6.197%.
Result for CNC(=O)C1CN(c2ccnc(C)n2)CCN(C2CCOCC2)C1 (centres undefined) was 14.92%.
Result for CC(C)(C)C(O)CN1CCN(C(=O)c2cccc3ncccc23)CC1 (centres undefined) was 3.067%.
Result for Cc1cc(C)cc(C2(C(=O)NCC(C)CN3CCCC3=O)CC2)c1 (centres undefined) was 12.03%.
Result for CNC(=O)CNC(=O)Nc1cc(-c2ccccc2)ns1 was 13.6%.
Result for O=C(c1cccnc1)N1C[C@H]2CN(Cc3cccc(F)c3)C(=O)[C@H]2C1 was 6%.
Result for Cc1cccc(N2CCCC3(C2)CN(S(=O)(=O)C2CC2)CCO3)c1 (centres undefined) was 16.79%.
Result for O=C(CCCNc1ncccn1)N1CCCC(n2cncn2)C1 (centres undefined) was 9.456%.
Result for Cc1cnn(CCC(=O)Nc2cccnc2N2CCC(CO)CC2)c1 was 2.174%.
Result for CCc1nc(CN2CCCC(N(C)CCn3cccn3)C2)no1 (centres undefined) was 9.581%.
Result for COCCn1cnnc1C1CCCN(c2cnccn2)C1 (centres undefined) was 18.65%.
Result for Cc1cc(C(=O)Nc2cccn(Cc3ccccc3)c2=O)no1 was 10.97%.
Result for Oc1nc(N2CCOCC2)nc2c1CCN(Cc1cccc(F)c1)CC2 was 11.3%.
Result for Cc1nn(C)c(C)c1NC(=O)c1cccc(CN2CC[C@H](O)C2)c1 was 1.809%.
Result for CCN(CC)S(=O)(=O)c1ccc2c(c1)N(Cc1ccccn1)C(=O)CS2 was 8.168%.
Result for Cc1cccc(N2Cc3nc(N4CCC(C)CC4)ncc3C2=O)c1 was -11.66%.
Result for O=C(CCN1CCCC(CO)(CC2CC2)C1)NCc1cccc(Cl)c1 (centres undefined) was 7.914%.
Result for O=C(CN(Cc1ccco1)C1CC1)Nc1ccc(Br)cn1 was 13.89%.
Result for O=C(CCc1ccsc1)Nc1ccnn1C1CCS(=O)(=O)C1 (centres undefined) was 11.56%.
Result for CCCN(CC(=O)OC)C(=O)c1sc(C)nc1C was 13.35%.
Result for O=C(NCCSCc1ccco1)c1ccc(N2CCOCC2)cc1 was 14.48%.
Result for CCN(C)c1ncnc2c1CCN(Cc1ccc(F)cc1)CC2 was 8.125%.
Result for CC(C)Nc1ccnc(-c2ccnc3c2ccn3C)n1 was 27.95%.
Result for Cc1oncc1C(=O)NCC(c1ccccc1Cl)N1CCOCC1 (centres undefined) was 7.609%.
Result for Cn1cc(CNC(=O)Nc2ccc(S(=O)(=O)C(F)F)cc2)cn1 was 1.003%.
Result for Cc1ccc(CN2CCC(c3nnc(CN4CCCCC4)n3C)CC2)o1 was 14.81%.
Result for O=C1CC(N2CCN(c3ccc(F)cc3)CC2)C(=O)N1Cc1cccs1 (centres undefined) was 20.53%.
Result for O=C(c1nnn(-c2ccccc2F)c1-c1ccccn1)N1CCSCC1 was 16.55%.

Once more, the final 8:

For O=C(NCCSCc1ccco1)c1ccc(N2CCOCC2)cc1 the result was 14.48%.
For CCN(C)c1ncnc2c1CCN(Cc1ccc(F)cc1)CC2 the result was 8.125%.
For CC(C)Nc1ccnc(-c2ccnc3c2ccn3C)n1 the result was 27.95%.
For Cc1oncc1C(=O)NCC(c1ccccc1Cl)N1CCOCC1 (centres undefined) the result was 7.609%.
For Cn1cc(CNC(=O)Nc2ccc(S(=O)(=O)C(F)F)cc2)cn1 the result was 1.003%.
For Cc1ccc(CN2CCC(c3nnc(CN4CCCCC4)n3C)CC2)o1 the result was 14.81%.
For O=C1CC(N2CCN(c3ccc(F)cc3)CC2)C(=O)N1Cc1cccs1 (centres undefined) the result was 20.53%.
For O=C(c1nnn(-c2ccccc2F)c1-c1ccccn1)N1CCSCC1 the result was 16.55%.

Data taken from ChEMBL document CHEMBL3988442, “University of Dundee, Small-Polar-MMV Screening Library” (2021).